Measurements taken from patent publication US20090005417A1, “Substituted Indazolyl Sulfonamide and 2,3-Dihydro-Indolyl Sulfonamide Compounds, their Preparation and Use in Medicaments” (LABORATORIOS DEL DR. ESTEVE S.A., priority 2004, published 2009).
The structures given here were assigned with low confidence; some may be wrong.

Chains of the proteins cited; added tags and fusions are not shown.
UniProt P50406, whole entry: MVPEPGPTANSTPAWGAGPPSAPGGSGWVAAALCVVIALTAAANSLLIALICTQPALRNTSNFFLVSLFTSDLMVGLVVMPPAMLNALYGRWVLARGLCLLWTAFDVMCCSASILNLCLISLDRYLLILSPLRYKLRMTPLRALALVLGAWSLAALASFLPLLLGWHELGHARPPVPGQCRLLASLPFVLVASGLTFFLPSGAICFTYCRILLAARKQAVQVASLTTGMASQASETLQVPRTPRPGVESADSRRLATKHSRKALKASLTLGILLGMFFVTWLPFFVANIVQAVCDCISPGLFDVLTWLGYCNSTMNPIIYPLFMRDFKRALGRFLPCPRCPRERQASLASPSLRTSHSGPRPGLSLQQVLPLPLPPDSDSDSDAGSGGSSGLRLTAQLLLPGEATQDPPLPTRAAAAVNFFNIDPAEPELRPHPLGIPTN

Target: 5HT6-human recombinant receptor (Homo sapiens, UniProt P50406)
Assay: Binding to serotonin receptor 5-HT6 ([3H]-LSD radioligand)
Conditions: membranes of HEK-293 cells expressing the receptor; [3H]-LSD 2.7 nM; 60 min at 37° C.
Experimental: Cell membranes of HEK-293 cells expressing the 5HT6-human recombinant receptor were supplied by Receptor Biology. In said membranes the receptor concentration is 2.18 pmol/mg protein and the protein concentration is 9.17 mg/ml. The experimental protocol follows the method of B. L. Roth et al. [B. L. Roth, S. C. Craigo, M. S. Choudhary, A. Uluer, F. J. Monsma, Y. Shen, H. Y. Meltzer, D. R. Sibley: Binding of Typical and Atypical Antipsychotic Agents to 5-Hydroxytryptamine-6 and Hydroxytryptamine-7 Receptors. The Journal of Pharmacology and Experimental Therapeutics, 1994, 268, 1403] with the following slight changes. The respective part of the literature description is hereby incorporated by reference and forms part of the disclosure.
The commercial membrane is diluted (1:40 dilution) with the binding buffer: 50 mM Tris-HCl, 10 mM MgCl2, 0.5 mM EDTA (pH 7.4). […] Non-specific binding is determined in the presence of 100 μM of serotonin. […] The inhibition constants (Ki, nM) were calculated by non-linear regression analysis using the program EBDA/LIGAND described in Munson and Rodbard, Analytical Biochemistry, 1980, 107, 220, the respective part of which is hereby incorporated by reference and forms part of the disclosure.
The binding of the substituted indazolyl sulfonamide or 2,3-dihydro-indolyl sulfonamide compounds to the 5-HT6 receptor was determined as described above.

Ki: 146 nM
Structure (SMILES): CN1CCC(c2n[nH]c3ccc(NS(=O)(=O)c4ccc5ccccc5c4)cc23)CC1
